# According to the supplement of paper PMC12889115:
# This is one part of the list. These are raw signals, not scaled to a control.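 Primary screen: polymyxin B was added at a level permeabilizing Salmonella outer membranes while sparing inner membranes. DMSO wells, both with and without polymyxin B, established maximum growth. Plate-to-plate variation meant each plate was ranked on its own, and the lowest-OD600 compounds were selected as hits.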
# System: Salmonella enterica serovar Typhimurium SL1344
# Assay: bacterial growth OD600 after 18 h with compound and polymyxin B; higher = more bacterial growth (less inhibition)
# Settings: 50 µM, Mueller-Hinton broth
Structure (SMILES),bacterial growth OD600 (polymyxin B 0.75 µg/mL),bacterial growth OD600 (polymyxin B 1 µg/mL)
COc1ccccc1CCC(=O)N1CCc2onc(-c3ccc(Cl)cc3)c2C1,0,–
Cc1ncc2c(c1CNC(=O)c1ccccc1F)CCN(C(=O)COc1ccccc1Cl)C2,0.729,–
CCOC(=O)C1(Cc2ccccc2Cl)CCN(Cc2nc3ccccc3[nH]2)CC1,–,0.955
CC(C)Cc1cc(C(=O)N2CCOc3ccc(CN4CCc5sccc5C4)cc3C2)n(C)n1,0.743,–
OCC1CCCCN1Cc1nc(Cc2ccccc2Cl)no1 (stereo unspecified),–,0.832
COc1ccc(-c2cnnc(N(C)CCC3CCCCO3)n2)cc1 (stereo unspecified),–,0.897
CCCc1cc(CN(C)C(=O)CC2(c3cccc(C(F)(F)F)c3)CC(=O)N(C3CC3)C2=O)n[nH]1 (stereo unspecified),0.058,–
CCN1CC(CNC(=O)c2cc(NS(=O)(=O)CC)cc3nc(-c4ccccc4)n(C)c23)CC1=O (stereo unspecified),0.863,–
OC(Cc1ccccc1)c1ccc2c(c1)CN(Cc1ccc(OC(F)F)cc1)CCO2 (stereo unspecified),0,–
COc1ccccc1CCNC(=O)Cc1ccc(N2CCC(NCCc3ccco3)CC2)cc1,0.821,–
CC(C)CCC(=O)N1CCOc2ccc(C(C)(O)CN(C)C)cc2C1 (stereo unspecified),0.915,–
CCCCc1nc2cc(C(=O)N3CCC(Oc4ccccc4F)CC3)ccc2o1,0.225,–
CCN1CCN(C2(C(=O)N(C)Cc3cc(C)[nH]n3)Cc3ccccc3C2)CC1,0.843,–
COCCNC(=O)c1ccc(OC)cc1OC1CCN(C2CCCC(C)(C)C2)CC1 (stereo unspecified),–,1.12
CN(Cc1nc2ccccc2o1)C(=O)c1ccc2nc(C3CCCCC3)oc2c1,–,0.852
COc1ccc(CCCNC(=O)c2ccc(N3CCC(N(C)C)C3)nc2)cc1 (stereo unspecified),–,1.08

# Retrieved by structure from above, 2 records:
Structure (SMILES),bacterial growth OD600 (polymyxin B 0.75 µg/mL),bacterial growth OD600 (polymyxin B 1 µg/mL)
COc1ccccc1CCNC(=O)Cc1ccc(N2CCC(NCCc3ccco3)CC2)cc1,0.821,–
CC(C)CCC(=O)N1CCOc2ccc(C(C)(O)CN(C)C)cc2C1 (stereo unspecified),0.915,–

# Following part:

Structure (SMILES),bacterial growth OD600 (polymyxin B 0.75 µg/mL),bacterial growth OD600 (polymyxin B 1 µg/mL)
CC[C@H](C)[C@H](NC(=O)c1cccc(OC2CCN(S(C)(=O)=O)CC2)c1)C(=O)OC,–,1.05
CN(CCN1CCOCC1)C(=O)CC(c1ccccc1)c1ccccc1F (stereo unspecified),–,1.08
COc1cccc(CCNc2ccc(-c3nc(C4CC4)no3)cn2)c1OC,0.488,–
O=C(CCOc1ccccc1)N1CCCC(Nc2ccccc2)C1 (stereo unspecified),–,0.736
CC1(C)Cc2nc(N3CCOCC3)ncc2C(NC(=O)CC2=CCCCC2)C1 (stereo unspecified),0.649,–
O=C(NCC1Cc2cc(F)cc(-c3ccccn3)c2O1)c1ccc(F)cc1 (stereo unspecified),0.748,–
COc1cccc(N2C(=O)CN(C(=O)c3ccc4nccnc4c3)CC2C)c1 (stereo unspecified),0.836,–
O=C([C@H]1C[C@@H]2C=C[C@H]1C2)N1CCC(C2(c3ccccn3)NC(=O)N(CCc3cccs3)C2=O)CC1 (stereo partly specified),0.942,–
Cc1ccc(OCC(=O)N2CCC(CCC(=O)Nc3ccccc3)CC2)cc1,–,0.786
C=Cc1ccc(C(=O)N2CCCC(Nc3ccc(OC)cc3)C2)cc1 (stereo unspecified),–,0.989
O=C1CCC(CCC(=O)N2CCC[C@H]2CO)(Cc2ccc3ccccc3c2)N1 (stereo partly specified),0.847,–
CN(CCc1ccccn1)c1ncccc1CNC(=O)C1CCCCCC1,0.647,–
O=C(NCC1CCS(=O)(=O)C1)C1(N2CCCCC2)Cc2ccccc2C1 (stereo unspecified),0.704,–
CCN1CCC(C(=O)N2CCCC(CCc3ccc(F)c(F)c3)C2)CC1 (stereo unspecified),0.838,–
CCOC(=O)C1(CCOc2ccccc2)CCCN(C(=O)CCc2cnn(C)c2)C1 (stereo unspecified),–,0.821
